The target of experiment [1] is T1, HA-Fe65 (UniProt O00213).
T1 sequence: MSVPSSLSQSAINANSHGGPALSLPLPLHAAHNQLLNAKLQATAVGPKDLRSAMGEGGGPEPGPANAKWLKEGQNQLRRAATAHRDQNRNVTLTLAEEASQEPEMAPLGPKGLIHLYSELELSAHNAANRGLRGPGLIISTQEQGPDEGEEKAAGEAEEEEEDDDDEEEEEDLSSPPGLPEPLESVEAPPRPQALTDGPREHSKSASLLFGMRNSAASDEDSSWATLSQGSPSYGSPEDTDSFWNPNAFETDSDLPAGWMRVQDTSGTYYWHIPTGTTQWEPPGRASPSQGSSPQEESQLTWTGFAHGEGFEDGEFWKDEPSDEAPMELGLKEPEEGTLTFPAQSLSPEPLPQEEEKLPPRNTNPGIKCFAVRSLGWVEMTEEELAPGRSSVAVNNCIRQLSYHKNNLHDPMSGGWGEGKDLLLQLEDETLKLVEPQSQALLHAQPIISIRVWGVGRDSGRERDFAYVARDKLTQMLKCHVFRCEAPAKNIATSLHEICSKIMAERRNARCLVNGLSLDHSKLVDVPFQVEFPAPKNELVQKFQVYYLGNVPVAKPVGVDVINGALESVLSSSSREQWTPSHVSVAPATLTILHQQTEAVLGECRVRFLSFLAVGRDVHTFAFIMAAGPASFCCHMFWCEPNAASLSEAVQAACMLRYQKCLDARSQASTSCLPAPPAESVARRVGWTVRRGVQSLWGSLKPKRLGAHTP
In words: co-IP; HEK293 cells transfected with the two constructs (single transfections as controls); IP with APPc, anti-HA or anti-Myc antibody, Western blot. On the technique in general: In western blotting, separated proteins are transferred to a membrane and probed.

By UniProt entry, the sequences of proteins in these tests, tags left out. Residues count along the entry.
UniProt O55005, residues 26-1651: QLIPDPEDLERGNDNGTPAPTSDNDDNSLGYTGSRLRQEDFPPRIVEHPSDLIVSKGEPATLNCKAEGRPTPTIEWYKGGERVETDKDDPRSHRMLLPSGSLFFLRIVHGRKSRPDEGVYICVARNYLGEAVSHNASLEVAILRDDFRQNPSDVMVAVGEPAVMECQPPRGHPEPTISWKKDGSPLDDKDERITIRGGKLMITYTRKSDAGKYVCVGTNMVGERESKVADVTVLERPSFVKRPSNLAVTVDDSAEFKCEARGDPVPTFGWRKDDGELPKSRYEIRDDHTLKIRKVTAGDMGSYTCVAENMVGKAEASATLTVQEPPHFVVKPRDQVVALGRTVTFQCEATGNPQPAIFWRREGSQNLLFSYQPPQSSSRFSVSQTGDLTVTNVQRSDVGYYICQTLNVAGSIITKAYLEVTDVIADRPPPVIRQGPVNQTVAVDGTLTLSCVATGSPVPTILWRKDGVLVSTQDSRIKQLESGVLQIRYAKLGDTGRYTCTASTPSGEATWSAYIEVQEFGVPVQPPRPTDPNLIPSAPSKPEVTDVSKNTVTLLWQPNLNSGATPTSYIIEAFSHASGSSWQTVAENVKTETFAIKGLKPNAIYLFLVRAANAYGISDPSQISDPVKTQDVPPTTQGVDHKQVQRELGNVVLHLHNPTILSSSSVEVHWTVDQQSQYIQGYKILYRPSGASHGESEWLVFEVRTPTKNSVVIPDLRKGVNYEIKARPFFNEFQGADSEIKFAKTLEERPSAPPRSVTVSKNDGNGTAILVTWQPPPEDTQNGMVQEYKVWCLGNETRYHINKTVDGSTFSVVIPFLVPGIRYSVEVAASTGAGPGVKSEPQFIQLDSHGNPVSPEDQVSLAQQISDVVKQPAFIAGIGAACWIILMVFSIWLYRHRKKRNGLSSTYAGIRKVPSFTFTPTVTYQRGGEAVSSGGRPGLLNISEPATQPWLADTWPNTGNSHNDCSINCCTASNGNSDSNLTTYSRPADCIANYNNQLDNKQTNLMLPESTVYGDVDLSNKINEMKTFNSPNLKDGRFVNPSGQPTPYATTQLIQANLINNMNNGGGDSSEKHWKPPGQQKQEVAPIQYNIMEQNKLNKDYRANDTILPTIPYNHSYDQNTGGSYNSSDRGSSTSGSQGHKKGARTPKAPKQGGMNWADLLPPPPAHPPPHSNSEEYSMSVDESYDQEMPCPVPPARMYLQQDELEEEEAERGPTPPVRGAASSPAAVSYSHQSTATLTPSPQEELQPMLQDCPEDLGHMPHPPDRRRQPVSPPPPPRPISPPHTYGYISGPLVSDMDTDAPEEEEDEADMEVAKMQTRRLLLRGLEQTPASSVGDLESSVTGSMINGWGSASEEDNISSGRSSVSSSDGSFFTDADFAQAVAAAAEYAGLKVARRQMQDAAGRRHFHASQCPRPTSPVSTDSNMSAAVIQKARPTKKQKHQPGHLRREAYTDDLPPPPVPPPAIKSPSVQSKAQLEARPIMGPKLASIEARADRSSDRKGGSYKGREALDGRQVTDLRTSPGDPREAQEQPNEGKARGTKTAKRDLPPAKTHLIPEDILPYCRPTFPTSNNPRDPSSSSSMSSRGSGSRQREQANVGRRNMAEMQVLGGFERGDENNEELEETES
UniProt Q13153: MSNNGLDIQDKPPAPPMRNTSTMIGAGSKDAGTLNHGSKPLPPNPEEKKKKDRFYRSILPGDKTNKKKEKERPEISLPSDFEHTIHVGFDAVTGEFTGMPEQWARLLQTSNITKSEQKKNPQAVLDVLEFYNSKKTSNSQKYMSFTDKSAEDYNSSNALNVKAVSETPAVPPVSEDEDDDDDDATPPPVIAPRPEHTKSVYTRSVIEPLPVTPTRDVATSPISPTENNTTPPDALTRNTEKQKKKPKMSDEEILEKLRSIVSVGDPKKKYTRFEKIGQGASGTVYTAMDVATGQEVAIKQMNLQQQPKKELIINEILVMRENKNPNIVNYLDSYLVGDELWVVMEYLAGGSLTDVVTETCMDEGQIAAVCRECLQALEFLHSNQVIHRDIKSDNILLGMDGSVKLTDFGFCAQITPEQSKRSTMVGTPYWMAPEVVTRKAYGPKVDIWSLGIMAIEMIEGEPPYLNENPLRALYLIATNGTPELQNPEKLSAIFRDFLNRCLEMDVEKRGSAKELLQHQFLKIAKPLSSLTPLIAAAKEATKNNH
UniProt O43639: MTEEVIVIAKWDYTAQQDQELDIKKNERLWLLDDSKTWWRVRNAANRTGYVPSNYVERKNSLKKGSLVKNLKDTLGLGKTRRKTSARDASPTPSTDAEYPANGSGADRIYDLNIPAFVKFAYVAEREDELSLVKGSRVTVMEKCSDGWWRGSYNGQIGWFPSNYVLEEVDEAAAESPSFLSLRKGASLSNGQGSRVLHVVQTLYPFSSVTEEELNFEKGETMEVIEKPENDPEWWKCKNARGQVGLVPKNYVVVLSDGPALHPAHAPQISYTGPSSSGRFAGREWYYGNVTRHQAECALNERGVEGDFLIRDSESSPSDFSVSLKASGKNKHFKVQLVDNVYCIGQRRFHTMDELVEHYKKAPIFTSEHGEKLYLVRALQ
UniProt P12023, residues 18-770: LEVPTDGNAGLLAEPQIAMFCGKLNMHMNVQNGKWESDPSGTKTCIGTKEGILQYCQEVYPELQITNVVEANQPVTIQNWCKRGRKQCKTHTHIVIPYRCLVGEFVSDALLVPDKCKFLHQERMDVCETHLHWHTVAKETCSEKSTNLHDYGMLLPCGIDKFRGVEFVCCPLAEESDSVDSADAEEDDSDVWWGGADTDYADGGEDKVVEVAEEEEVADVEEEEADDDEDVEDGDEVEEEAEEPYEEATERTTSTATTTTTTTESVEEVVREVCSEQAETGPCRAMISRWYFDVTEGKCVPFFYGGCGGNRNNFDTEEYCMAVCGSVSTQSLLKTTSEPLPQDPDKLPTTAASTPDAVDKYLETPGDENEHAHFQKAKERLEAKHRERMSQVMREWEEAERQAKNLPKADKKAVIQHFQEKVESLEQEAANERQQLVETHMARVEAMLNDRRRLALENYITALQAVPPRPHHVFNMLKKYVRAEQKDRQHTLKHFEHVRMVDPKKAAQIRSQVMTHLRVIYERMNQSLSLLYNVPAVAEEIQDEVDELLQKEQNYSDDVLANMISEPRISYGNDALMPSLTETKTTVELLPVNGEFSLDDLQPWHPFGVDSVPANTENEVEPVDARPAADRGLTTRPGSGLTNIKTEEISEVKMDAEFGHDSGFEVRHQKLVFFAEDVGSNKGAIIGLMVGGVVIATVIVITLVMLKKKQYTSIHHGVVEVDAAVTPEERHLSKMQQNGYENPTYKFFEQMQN

Experiment [2] addresses Full-length (FL) human APP695 (human) (UniProt P05067). Described as above.
Experiment [3] has as its target T2, endogenous mouse Slit2 (mouse (endogenous in P0 brain)) (UniProt Q9R1B9).
T2 sequence: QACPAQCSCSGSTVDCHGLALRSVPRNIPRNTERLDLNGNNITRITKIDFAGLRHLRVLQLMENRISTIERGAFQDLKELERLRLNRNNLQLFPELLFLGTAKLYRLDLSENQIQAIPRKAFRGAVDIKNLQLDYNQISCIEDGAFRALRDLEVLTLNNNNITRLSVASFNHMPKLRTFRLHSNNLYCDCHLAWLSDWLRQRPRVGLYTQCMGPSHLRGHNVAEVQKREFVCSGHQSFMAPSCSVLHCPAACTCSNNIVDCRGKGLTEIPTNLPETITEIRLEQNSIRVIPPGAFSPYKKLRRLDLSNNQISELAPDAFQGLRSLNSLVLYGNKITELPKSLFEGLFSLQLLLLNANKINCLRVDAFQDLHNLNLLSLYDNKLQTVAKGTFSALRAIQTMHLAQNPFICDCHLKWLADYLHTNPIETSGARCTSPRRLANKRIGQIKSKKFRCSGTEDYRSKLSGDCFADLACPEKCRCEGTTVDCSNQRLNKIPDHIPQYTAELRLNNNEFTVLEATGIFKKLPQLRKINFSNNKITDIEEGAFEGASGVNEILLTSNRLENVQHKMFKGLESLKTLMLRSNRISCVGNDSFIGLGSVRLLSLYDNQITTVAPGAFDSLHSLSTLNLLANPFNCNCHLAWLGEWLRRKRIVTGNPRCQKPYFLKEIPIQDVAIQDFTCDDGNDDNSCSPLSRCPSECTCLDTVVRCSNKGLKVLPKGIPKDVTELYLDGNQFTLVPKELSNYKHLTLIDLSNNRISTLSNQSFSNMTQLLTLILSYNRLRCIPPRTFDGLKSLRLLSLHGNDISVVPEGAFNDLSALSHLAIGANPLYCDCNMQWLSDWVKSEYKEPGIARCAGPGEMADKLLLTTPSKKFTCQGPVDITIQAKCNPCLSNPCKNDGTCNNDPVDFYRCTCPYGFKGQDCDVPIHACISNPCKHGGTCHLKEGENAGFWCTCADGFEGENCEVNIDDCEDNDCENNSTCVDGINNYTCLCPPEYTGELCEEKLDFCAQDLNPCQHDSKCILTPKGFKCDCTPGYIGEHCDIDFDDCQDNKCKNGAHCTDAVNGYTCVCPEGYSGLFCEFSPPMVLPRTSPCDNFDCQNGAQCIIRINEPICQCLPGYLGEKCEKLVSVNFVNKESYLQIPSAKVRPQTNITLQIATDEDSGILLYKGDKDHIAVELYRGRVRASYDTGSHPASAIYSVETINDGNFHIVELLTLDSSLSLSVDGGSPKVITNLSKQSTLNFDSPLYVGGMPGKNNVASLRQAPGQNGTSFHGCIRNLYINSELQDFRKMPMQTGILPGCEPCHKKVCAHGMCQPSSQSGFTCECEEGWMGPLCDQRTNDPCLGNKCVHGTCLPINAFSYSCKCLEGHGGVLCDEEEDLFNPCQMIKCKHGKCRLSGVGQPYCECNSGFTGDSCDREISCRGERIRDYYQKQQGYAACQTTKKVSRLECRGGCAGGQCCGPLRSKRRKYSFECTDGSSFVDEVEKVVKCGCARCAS
In words: co-IP; P0 WT mouse brain lysates; IP with an anti-Slit2 antibody, Western blot with anti-APP 22C11.

The target in experiment [4] is T3, Human Slit2 tagged with c-Myc (Slit2-Myc) (human) (UniProt O94813).
T3 sequence: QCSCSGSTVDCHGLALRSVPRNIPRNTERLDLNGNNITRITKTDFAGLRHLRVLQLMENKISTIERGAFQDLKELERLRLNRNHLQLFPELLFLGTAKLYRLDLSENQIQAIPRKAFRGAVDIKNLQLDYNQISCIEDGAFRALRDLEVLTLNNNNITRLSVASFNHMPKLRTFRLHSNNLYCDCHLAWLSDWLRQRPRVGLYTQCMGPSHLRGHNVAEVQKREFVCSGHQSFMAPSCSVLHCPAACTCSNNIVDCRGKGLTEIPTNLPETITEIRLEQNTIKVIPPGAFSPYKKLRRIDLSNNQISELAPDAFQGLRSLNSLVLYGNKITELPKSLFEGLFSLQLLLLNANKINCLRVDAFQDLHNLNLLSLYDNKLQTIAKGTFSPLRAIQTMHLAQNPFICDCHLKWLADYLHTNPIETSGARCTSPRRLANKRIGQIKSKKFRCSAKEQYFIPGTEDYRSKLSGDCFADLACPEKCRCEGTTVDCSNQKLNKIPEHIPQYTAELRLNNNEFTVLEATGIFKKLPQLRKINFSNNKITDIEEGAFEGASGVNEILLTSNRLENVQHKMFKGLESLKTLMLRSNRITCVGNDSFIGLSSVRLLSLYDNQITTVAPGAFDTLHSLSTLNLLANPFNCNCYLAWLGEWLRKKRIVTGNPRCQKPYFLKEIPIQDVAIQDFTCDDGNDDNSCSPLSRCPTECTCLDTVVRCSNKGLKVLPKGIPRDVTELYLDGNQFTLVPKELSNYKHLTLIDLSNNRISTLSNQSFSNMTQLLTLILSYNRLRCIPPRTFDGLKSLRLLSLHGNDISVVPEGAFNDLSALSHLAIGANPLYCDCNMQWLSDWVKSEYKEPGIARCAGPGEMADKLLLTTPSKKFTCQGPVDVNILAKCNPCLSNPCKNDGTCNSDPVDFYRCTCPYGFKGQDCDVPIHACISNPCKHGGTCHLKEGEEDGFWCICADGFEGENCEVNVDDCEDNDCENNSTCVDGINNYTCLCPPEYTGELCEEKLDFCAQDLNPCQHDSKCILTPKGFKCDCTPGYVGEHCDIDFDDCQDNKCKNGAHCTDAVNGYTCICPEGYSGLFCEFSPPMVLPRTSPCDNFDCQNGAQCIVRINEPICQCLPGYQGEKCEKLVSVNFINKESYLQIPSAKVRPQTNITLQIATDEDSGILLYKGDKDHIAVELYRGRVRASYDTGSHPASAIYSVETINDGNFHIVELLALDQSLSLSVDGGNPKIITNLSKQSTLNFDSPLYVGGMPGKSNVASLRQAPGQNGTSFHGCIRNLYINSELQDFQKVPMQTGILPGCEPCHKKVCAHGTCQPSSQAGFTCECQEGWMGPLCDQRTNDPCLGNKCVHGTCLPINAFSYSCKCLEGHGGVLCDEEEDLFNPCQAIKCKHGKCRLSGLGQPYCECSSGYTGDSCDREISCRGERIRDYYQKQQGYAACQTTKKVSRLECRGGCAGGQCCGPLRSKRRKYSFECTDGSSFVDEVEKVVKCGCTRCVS
Description: co-IP; HEK293 cells transfected with the two constructs (single transfections as controls); IP with APPc, anti-HA or anti-Myc antibody, Western blot.

Experiment [5] addresses Rat Robo1 tagged with the hemagglutinin (Robo1-HA) (rat) (UniProt O55005). The experiment is described as above.

No constants are given. Whether binding was seen depends on the method and setting. Binding seen in cells or lysates may run through a third protein. Some binding calls cover weakened binding; strength is not graded here. For some of these results: Tags and fused reporters may be left off the sequences shown.

Consider “Myc-Pak1 (from UniProt Q13153 1-545) (enzyme)”, for which the binding entry in experiment [1] was “binds”.

On to “Rat Robo1 tagged with the hemagglutinin (Robo1-HA) (from UniProt O55005 26-1651) (receptor)”, for which the binding result in experiment [2] was “binds”.

For the substance “HA-tagged Nck2 (Nck2-HA) (from UniProt O43639 1-380)”, in experiment [2], the binding entry is “binds”.

For “endogenous mouse APP (from UniProt P12023 18-770) (receptor)”, in experiment [3], the binding result is “binds”.

For “endogenous APP of HEK293 cells (from UniProt P05067 18-770) (receptor)”, the binding result in experiment [4] is given as “binds”.

In the case of “Full-length (FL) human APP695 (from UniProt P05067-4 18-695) (receptor)”, the binding result in experiment [4] and in experiment [5] was “binds” throughout.
